Measured values taken from patent US9079977B2, “Anti-trypanosomal peptides and uses thereof” (priority 2009, dated 2015).
Not every detail of the peptide structures is certain; ends, links or a residue may be inferred. Where a SMILES comes first, the peptide text is derived from it.

How the values were obtained:
[1] = tested on: T. b. brucei expressing SRA; assay: Trypanosome lysis assay, SRA-expressing cells; assay type: cell-based, Trypanosoma brucei brucei
BSF T. b. brucei VSG = assay: FRAP analysis of VSG mobile fraction; assay type: cell-based, Trypanosoma brucei brucei; settings: 8 μM SHP-1

Structure (SMILES)	killing of SRA expressing trypanosomes [1]	fraction of VSG exhibiting lateral mobility (BSF T. b. brucei VSG)
CC[C@H](C)[C@H](NC(=O)[C@@H](NC(=O)[C@H](C)NC(=O)CNC(=O)[C@H](CC(C)C)NC(=O)[C@H](CC(=O)O)NC(=O)[C@H](CO)NC(=O)[C@@H](N)CCSC)C(C)C)C(=O)N[C@@H](CO)C(=O)N[C@@H](CC(C)C)C(=O)N[C@@H](CC(C)C)C(=O)N[C@@H](CC(C)C)C(=O)N[C@@H](Cc1c[nH]c2ccccc12)C(=O)NCC(=O)N[C@@H](CCCNC(=N)N)C(=O)N[C@@H](CCC(N)=O)C(=O)N[C@@H](CC(C)C)C(=O)N[C@@H](Cc1ccccc1)C(=O)N[C@@H](C)C(=O)O [Hpr-SP, MSDLGAVISLLLWGRQLFA] (H-MSDLGAVISLLLWGRQLFA-OH; N-terminus and C-terminus assumed)	killed with identical activity as non-SRA expressing T. b. brucei	–
CC[C@H](C)[C@H](NC(=O)[C@@H](NC(=O)[C@H](C)NC(=O)CNC(=O)[C@H](CC(C)C)NC(=O)[C@H](CC(=O)O)NC(=O)[C@@H](N)CO)C(C)C)C(=O)N[C@@H](CO)C(=O)N[C@@H](CC(C)C)C(=O)N[C@@H](CC(C)C)C(=O)N[C@@H](CC(C)C)C(=O)N[C@@H](Cc1c[nH]c2ccccc12)C(=O)NCC(=O)N[C@@H](CCCNC(=N)N)C(=O)N[C@@H](CCC(N)=O)C(=O)N[C@@H](CC(C)C)C(=O)N[C@@H](Cc1ccccc1)C(=O)N[C@@H](C)C(=O)O [SHP-1, SDLGAVISLLLWGRQLFA] (H-SDLGAVISLLLWGRQLFA-OH; N-terminus and C-terminus assumed)	–	decreasing the fraction of VSG exhibiting lateral mobility
